These results are taken from paper PMC12757373.

Results are given in words; binding and its absence hold for the method and conditions named. Some binding calls cover weakened binding; strength is not graded here.

What all share (assay): non-reducing SDS-PAGE with Western blot; lysates of BMDMs treated with OXO for 1 h and then TNF-α for 2 h; samples in 2× SDS-PAGE loading buffer without DTT, boiled 5 min; oligomers detected by immunoblot
Experiment [1] deals with phosphorylated mixed lineage kinase domain like pseudokinase (p-MLKL) (mouse (endogenous in BMDMs)) (UniProt Q9D2Y4).
The target in experiment [2] is GSDME-NT (activated gasdermin E) (mouse (endogenous in BMDMs)) (UniProt Q9Z2D3).
Experiment [3] has as its target GSDMD-NT (activated gasdermin D) (mouse (endogenous in BMDMs)) (UniProt Q9D8T2).

B1: phosphorylated mixed lineage kinase domain like pseudokinase (p-MLKL) (protein, UniProt Q9D2Y4 1-472)
chain: MDKLGQIIKLGQLIYEQCEKMKYCRKQCQRLGNRVHGLLQPLQRLQAQGKKNLPDDITAALGRFDEVLKEANQQIEKFSKKSHIWKFVSVGNDKILFHEVNEKLRDVWEELLLLLQVYHWNTVSDVSQPASWQQEDRQDAEEDGNENMKVILMQLQISVEEINKTLKQCSLKPTQEIPQDLQIKEIPKEHLGPPWTKLKTSKMSTIYRGEYHRSPVTIKVFNNPQAESVGIVRFTFNDEIKTMKKFDSPNILRIFGICIDQTVKPPEFSIVMEYCELGTLRELLDREKDLTMSVRSLLVLRAARGLYRLHHSETLHRNISSSSFLVAGGYQVKLAGFELSKTQNSISRTAKSTKAERSSSTIYVSPERLKNPFCLYDIKAEIYSFGIVLWEIATGKIPFEGCDSKKIRELVAEDKKQEPVGQDCPELLREIINECRAHEPSQRPSVDGRSLSGRERILERLSAVEESTDKKV
modifications: phosphorylated (site not given)
For B1, the binding entry in experiment [1] is listed as “binds”.

B2: GSDME-NT (activated gasdermin E) (domain or fragment, UniProt Q9Z2D3 1-270)
chain: MFAKATRNFLKEVDAGGDLISVSHLNDSDKLQLLSLVTKKKRYWCWQRPKYQILSATLEDVLTEGHCLSPVVVESDFVKYESKCENHKSGAIGTVVGKVKLNVGGKGVVESHSSFGTLRKQEVDVQQLIQDAVKRTVNMDNLVLQQVLESRNEVLCVLTQKIMTTQKCVISEHVQSEETCGGMVGIQTKTIQVSATEDGTVTTDTNVVLEIPAATTIAYGIMELFVKQDGQFEFCLLQGKHGGFEHERKLDSVYLDPLAYREFAFLDMLD
With B2, the binding result in experiment [2] is given as “binds”.

B3: GSDMD-NT (activated gasdermin D) (domain or fragment, UniProt Q9D8T2 1-276)
chain: MPSAFEKVVKNVIKEVSGSRGDLIPVDSLRNSTSFRPYCLLNRKFSSSRFWKPRYSCVNLSIKDILEPSAPEPEPECFGSFKVSDVVDGNIQGRVMLSGMGEGKISGGAAVSDSSSASMNVCILRVTQKTWETMQHERHLQQPENKILQQLRSRGDDLFVVTEVLQTKEEVQITEVHSQEGSGQFTLPGALCLKGEGKGHQSRKKMVTIPAGSILAFRVAQLLIGSKWDILLVSDEKQRTFEPSSGDRKAVGQRHHGLNVLAALCSIGKQLSLLSD
As to B3, the binding result in experiment [3] is “binds”.
